Laboratory results reported in PMC5287475.
These are yes or no findings as the source states them, for the method shown. In cells and extracts the contact can be indirect.

Sequences of proteins named here, by UniProt entry; tags and fusion partners are left off.
UniProt P25440: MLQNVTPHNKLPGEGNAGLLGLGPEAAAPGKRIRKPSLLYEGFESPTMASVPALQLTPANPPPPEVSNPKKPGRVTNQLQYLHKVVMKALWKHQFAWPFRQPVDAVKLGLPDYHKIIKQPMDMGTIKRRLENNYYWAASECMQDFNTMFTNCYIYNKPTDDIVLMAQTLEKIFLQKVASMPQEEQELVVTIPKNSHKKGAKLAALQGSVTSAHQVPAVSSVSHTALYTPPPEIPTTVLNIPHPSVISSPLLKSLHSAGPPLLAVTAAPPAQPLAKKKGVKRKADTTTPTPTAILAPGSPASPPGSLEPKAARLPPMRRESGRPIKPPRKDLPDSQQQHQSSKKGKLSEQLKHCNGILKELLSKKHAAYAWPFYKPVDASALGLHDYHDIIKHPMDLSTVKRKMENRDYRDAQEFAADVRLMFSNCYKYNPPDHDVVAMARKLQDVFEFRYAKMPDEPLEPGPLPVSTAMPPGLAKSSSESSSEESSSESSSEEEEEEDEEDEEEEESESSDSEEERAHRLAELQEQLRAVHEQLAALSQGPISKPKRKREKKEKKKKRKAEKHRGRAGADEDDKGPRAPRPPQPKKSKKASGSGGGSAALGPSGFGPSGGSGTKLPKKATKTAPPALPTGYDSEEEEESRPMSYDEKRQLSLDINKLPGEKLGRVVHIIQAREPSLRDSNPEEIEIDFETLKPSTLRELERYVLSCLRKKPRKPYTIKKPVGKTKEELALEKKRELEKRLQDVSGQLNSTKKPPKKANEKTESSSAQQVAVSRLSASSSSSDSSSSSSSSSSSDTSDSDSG

Target: T1, cohesin subunit RAD21 (endogenous) (human (endogenous in BCBL1)) (UniProt O60216)
T1 sequence: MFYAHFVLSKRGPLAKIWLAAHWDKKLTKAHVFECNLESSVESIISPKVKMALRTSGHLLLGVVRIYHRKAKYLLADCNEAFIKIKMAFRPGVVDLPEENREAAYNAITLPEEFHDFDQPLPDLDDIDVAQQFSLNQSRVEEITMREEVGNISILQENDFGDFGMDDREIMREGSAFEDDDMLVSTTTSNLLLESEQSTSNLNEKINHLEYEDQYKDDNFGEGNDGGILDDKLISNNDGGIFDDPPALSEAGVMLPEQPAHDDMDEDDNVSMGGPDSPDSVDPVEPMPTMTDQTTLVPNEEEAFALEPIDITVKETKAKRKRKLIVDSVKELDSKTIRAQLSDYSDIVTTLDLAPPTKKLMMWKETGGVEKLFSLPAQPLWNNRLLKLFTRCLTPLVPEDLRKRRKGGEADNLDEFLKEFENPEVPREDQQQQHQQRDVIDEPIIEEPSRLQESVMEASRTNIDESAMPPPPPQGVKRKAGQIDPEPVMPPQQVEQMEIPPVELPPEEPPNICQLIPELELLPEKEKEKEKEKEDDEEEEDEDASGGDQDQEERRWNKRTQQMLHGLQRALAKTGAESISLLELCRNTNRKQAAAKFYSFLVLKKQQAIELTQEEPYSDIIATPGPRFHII
Experiment: co-IP; endogenous proteins of BCBL1 cells treated with DMSO or JQ1 for 1 hr; IP with antibody to RAD21, BRD2, BRD4 or IgG; Western blot for RAD21, BRD4, BRD2, SMC1 or LANA

binding: no binding
Substance: BRD2 (endogenous) (from UniProt P25440 1-801)
